Reference: PMC11110755, “Structure-based virtual screening of unbiased and RNA-focused libraries to identify new ligands for the HCV IRES model system” (RSC Medicinal Chemistry, 2024)

Tested on: Tte preQ1-Riboswitch aptamer domain
Assay: MST off-target counter screen, preQ1-riboswitch aptamer domain
Type: binding, Thermoanaerobacter tengcongensis
Conditions: at high concentrations
Procedure: Off-target counter screens by MST were performed as described previously.[31,84] Briefly, the 5′-Cy5-labelled Tte preQ1-Riboswitch aptamer domain (Biomers.net GmbH) was heated to 75 °C for 5 min, cooled down to room temperature for at least 20 min and then diluted to 20 nM in MST buffer (50 mM Tris-HCl pH 7.5, 100 mM KCl, 25 mM MgCl2) and supplemented with compounds 4, 5, 8–13, 18, 21, 22 and 26 to final concentrations of 1000, 100, 10 and 0.001 μM. PreQ1 was used as a positive control. The 5′-Cy5-labelled B. angulatum SAM VI-Riboswitch aptamer domain (Eurofins Genomics GmbH) was heated to 75 °C for 5 min, cooled down to room temperature for at least 20 min and then diluted to 20 nM in MST buffer (50 mM Tris-HCl pH 7.5, 100 mM KCl, 25 mM MgCl2) and supplemented with compounds 5, 9 and 28 to final concentrations of 1000, 100, 10 and 0.001 μM. SAM was used as a positive control. For each experiment, one DMSO negative control was carried out. The final DMSO concentration was 2%. All measurements were performed at least as duplicates for pre-screening and triplicates for KD-determination. MST measurements were analyzed from signals after 18 s laser on-time using the MO.Affinity Analysis software (version 2.3) and exported for statistical analysis and plotting in GraphPad Prism (version 8.0.1., GraphPad Software, Boston, Massachusetts USA, https://www.graphpad.com).

In the case of `N=C(N)NC(=O)c1nc(Cl)c(N)nc1N` [Compound 26, amiloride, reference compound], the “aggregation in preQ1-riboswitch MST counter-screening” value is reported as “AggregaƟon”.
In the case of `CC(C)NCC(O)COc1ccc2[nH]cc(CCN)c2c1` (centres unmarked) [Compound 11], the “aggregation in preQ1-riboswitch MST counter-screening” value is reported as “AggregaƟon”.
